Laboratory results: paper PMC7984827, “A high-content AlphaScreen™ identifies E6-specific small molecule inhibitors as potential therapeutics for HPV^+ head and neck squamous cell carcinomas” (Oncotarget, 2021)
These are yes or no findings as the source states them, for the method shown. Some results given as binding are weak or reduced against the parent protein; the word gives no strength. Tags and fused reporters may be left off the sequences shown.

Molecular target: T1, His6-Caspase 8 (human Caspase 8) (human), Q14790
T1 chain: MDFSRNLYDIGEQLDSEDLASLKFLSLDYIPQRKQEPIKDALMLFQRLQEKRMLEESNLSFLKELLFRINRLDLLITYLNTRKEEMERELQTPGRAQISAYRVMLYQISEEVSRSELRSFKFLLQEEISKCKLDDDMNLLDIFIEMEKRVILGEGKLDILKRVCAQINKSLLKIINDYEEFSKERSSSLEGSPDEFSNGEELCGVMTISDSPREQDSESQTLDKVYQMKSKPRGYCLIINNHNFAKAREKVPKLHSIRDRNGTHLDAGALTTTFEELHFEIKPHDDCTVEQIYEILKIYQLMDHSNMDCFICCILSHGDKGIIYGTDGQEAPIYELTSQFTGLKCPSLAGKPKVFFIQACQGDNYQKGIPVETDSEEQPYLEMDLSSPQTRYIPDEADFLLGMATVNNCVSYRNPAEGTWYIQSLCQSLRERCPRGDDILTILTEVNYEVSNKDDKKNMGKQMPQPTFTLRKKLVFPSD
Assay: AlphaScreen or HTRF; both purified
Conditions: remark: other sources report otherwise

B1: GST-Caspase 8, Q14790 1-479 (enzyme)
chain: MDFSRNLYDIGEQLDSEDLASLKFLSLDYIPQRKQEPIKDALMLFQRLQEKRMLEESNLSFLKELLFRINRLDLLITYLNTRKEEMERELQTPGRAQISAYRVMLYQISEEVSRSELRSFKFLLQEEISKCKLDDDMNLLDIFIEMEKRVILGEGKLDILKRVCAQINKSLLKIINDYEEFSKERSSSLEGSPDEFSNGEELCGVMTISDSPREQDSESQTLDKVYQMKSKPRGYCLIINNHNFAKAREKVPKLHSIRDRNGTHLDAGALTTTFEELHFEIKPHDDCTVEQIYEILKIYQLMDHSNMDCFICCILSHGDKGIIYGTDGQEAPIYELTSQFTGLKCPSLAGKPKVFFIQACQGDNYQKGIPVETDSEEQPYLEMDLSSPQTRYIPDEADFLLGMATVNNCVSYRNPAEGTWYIQSLCQSLRERCPRGDDILTILTEVNYEVSNKDDKKNMGKQMPQPTFTLRKKLVFPSD
binding: binds
